Results are given in words; binding and its absence hold for the method and conditions named. Binding seen in cells or lysates may run through a third protein. Some entries that bind do so weakly or less than the wild type. Values belong to the substance of their own block, whether it stands above or below them.
Experiments:
[1] = target: FASN in 293T cells (Figure 3D and 3H; tag not told) (UniProt P49327); assay: co-IP; 293T cells (Fig. 3D); constructs and antibodies not told
[2] = target: Fatty acid synthase (FASN), endogenous in osteosarcoma cells (human (endogenous in 143B and U2OS)) (UniProt P49327); assay: co-IP; endogenous proteins; 143B and U2OS lysates immunoprecipitated with FASN, VCP and USP2 antibodies, western blot; also after EBSS for 0, 2, 4 and 6 h (FASN-VCP interaction increased)
HA-tagged FASN = HA-tagged FASN (UniProt P49327); assay: co-IP; 293T cells transfected with HA-FASN, FLAG-USP2 and MYC-VCP plasmids or their deletion and truncation mutants; lysates immunoprecipitated with tag antibodies (anti-MYC, anti-FLAG, anti-HA), western blot

Sequences of proteins named here, by UniProt entry; tags and fusion partners are left off.
UniProt P49327: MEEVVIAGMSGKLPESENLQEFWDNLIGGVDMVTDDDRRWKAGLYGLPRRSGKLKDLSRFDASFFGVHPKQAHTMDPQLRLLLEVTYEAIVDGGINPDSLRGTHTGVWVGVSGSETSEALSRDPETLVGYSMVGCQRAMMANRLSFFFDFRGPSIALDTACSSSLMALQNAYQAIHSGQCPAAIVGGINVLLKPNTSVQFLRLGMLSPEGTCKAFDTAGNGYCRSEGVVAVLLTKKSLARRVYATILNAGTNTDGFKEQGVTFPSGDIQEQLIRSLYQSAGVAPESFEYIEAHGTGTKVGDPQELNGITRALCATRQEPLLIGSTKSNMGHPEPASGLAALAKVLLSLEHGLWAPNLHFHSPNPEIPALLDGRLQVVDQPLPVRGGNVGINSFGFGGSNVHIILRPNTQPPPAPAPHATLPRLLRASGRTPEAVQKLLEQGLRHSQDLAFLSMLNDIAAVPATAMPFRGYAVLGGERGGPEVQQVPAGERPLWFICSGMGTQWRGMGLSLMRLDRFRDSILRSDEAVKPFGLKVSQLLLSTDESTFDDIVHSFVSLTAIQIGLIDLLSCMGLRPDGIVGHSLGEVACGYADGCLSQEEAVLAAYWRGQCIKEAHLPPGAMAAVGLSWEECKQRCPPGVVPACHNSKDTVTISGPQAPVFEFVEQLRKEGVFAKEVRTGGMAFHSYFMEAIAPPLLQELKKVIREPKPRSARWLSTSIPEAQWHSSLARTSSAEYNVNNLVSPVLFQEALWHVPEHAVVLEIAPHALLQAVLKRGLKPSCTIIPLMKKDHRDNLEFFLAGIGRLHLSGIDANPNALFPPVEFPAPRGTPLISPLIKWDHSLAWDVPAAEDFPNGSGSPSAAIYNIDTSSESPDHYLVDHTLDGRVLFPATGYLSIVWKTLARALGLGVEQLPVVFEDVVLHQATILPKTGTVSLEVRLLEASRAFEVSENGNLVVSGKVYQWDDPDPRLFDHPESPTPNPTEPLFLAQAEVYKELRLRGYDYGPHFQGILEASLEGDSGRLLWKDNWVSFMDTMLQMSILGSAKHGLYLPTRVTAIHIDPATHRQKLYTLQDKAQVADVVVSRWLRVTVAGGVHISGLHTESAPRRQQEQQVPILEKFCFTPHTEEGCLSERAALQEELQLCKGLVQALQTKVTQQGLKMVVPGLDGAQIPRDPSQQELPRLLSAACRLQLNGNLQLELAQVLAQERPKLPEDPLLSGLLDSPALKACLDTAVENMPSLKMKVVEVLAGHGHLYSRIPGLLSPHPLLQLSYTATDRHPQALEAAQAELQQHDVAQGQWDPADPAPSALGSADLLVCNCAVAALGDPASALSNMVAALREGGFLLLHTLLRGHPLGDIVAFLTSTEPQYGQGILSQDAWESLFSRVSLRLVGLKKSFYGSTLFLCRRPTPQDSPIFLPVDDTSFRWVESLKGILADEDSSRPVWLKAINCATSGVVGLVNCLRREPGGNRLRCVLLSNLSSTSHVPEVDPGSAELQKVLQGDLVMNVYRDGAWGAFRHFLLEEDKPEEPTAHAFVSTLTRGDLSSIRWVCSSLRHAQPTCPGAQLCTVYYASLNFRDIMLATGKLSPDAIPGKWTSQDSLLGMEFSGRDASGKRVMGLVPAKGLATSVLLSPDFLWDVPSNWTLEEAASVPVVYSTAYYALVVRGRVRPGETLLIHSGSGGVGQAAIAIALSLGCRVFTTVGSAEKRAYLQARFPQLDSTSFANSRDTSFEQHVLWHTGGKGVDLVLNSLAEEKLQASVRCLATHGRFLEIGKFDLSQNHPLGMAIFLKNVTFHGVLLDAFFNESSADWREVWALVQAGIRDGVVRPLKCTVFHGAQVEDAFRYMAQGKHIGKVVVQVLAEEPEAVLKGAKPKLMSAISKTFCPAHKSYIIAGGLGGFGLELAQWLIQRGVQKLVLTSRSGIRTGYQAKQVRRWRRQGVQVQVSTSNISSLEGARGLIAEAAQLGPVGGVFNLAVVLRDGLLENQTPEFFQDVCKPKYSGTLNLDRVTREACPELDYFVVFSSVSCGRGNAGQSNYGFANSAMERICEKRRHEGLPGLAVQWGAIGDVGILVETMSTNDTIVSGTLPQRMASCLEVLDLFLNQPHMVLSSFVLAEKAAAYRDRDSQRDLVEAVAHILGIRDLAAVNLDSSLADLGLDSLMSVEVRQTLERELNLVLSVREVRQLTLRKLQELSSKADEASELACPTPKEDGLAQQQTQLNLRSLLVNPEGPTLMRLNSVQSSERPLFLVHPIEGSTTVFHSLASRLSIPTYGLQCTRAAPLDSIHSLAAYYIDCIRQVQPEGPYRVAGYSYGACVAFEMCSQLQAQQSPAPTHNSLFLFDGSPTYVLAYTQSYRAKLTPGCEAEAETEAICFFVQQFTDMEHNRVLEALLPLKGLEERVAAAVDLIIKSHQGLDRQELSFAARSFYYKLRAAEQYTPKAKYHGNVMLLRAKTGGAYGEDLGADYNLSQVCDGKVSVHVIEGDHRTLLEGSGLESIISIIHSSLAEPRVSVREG

binding [1]: binds
Substance: VCP in 293T cells (Figure 3D; tag not told) (from UniProt P55072 1-806)

binding [2]: binds
Substance: Valosin-containing protein (VCP), endogenous in osteosarcoma cells (from UniProt P55072 1-806)

binding (HA-tagged FASN): binds
Substance: MYC-labeled full-length VCP (from UniProt P55072 1-806)

Reference: PMC11532476
